PubChem BioAssay AID1259254 – NCATS | 2017

- Test: 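Gene knock-downs that lead to re-replication, shown by excess G2 DNA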 (primary screen)
- Cell system: human HCT116 colorectal cancer cells
- Reagents: single siRNA against human genes
- Duration: 3 days
- Measurement: 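Imaged Hoechst DNA stain sorts each cell into a cycle phase by DNA amount; per plate, G2 fraction set to 0% for non-targeting and 100% for GMNN siRNA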
- Direction: G2 robust z-score and G2 cells, % of GMNN control: higher = more G2 cells, more excess DNA replication
- Call rule: 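An siRNA counts as active if its G2 robust z-score lies at least 5 MADs above the screen median; here such calls match roughly 38% of GMNN control or more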
The whole screen tested about 59,000 reagents; this is a part drawn at random. In the full data, about 1,550 (2.6%) were called active. 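G2 share is only a proxy for re-replication; each gene was hit by three separate siRNAs, and active genes were retested.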 A number with no mark means an inactive call. Reagents against one gene are numbered here. Not all columns of the deposit are shown. Not given: the amount of reagent.

no.	gene	reagent	G2 robust z-score	G2 cells, % of GMNN control
1	TEDC2-AS1 (GeneID 729652)	1	-0.299	0.866
2	TEDC2-AS1 (GeneID 729652)	2	-0.0678	2.49
3	TEDC2-AS1 (GeneID 729652)	3	-0.399	0.157
4	PLEKHH3 (GeneID 79990)	1	1.4	12.8
5	PLEKHH3 (GeneID 79990)	2	0.0632	3.41
6	PLEKHH3 (GeneID 79990)	3	-0.787	-2.57
7	PTTG1IP (GeneID 754)	1	0.0664	3.43
8	PTTG1IP (GeneID 754)	2	1.51	13.6
9	PTTG1IP (GeneID 754)	3	1.48	13.4
10	IDE (GeneID 3416)	1	2.5	20.6
11	IDE (GeneID 3416)	2	-1.03	-4.29
12	IDE (GeneID 3416)	3	-0.505	-0.583
13	GRAMD1A (GeneID 57655)	1	-0.077	2.43
14	GRAMD1A (GeneID 57655)	2	-0.601	-1.26
15	GRAMD1A (GeneID 57655)	3	0.102	3.69
16	VPS26B (GeneID 112936)	1	-0.385	0.259
17	VPS26B (GeneID 112936)	2	-0.356	0.46
18	VPS26B (GeneID 112936)	3	-0.35	0.505
19	CAV2 (GeneID 858)	1	1.8	15.6
20	CAV2 (GeneID 858)	2	-1.87	-10.2
21	CAV2 (GeneID 858)	3	0.398	5.77
22	LRFN3 (GeneID 79414)	1	1.42	12.9
23	LRFN3 (GeneID 79414)	2	1.42	12.9
24	LRFN3 (GeneID 79414)	3	-1.38	-6.72
25	STRA8 (GeneID 346673)	1	0.581	7.05
26	STRA8 (GeneID 346673)	2	-0.624	-1.42
27	STRA8 (GeneID 346673)	3	0.842	8.89
28	AMER3 (GeneID 205147)	1	-0.673	-1.77
29	AMER3 (GeneID 205147)	2	-1.07	-4.53
30	AMER3 (GeneID 205147)	3	-0.0756	2.44
31	ZNF582 (GeneID 147948)	1	-0.736	-2.21
32	ZNF582 (GeneID 147948)	2	0.877	9.14
33	ZNF582 (GeneID 147948)	3	-0.435	-0.0936
34	HOXD10 (GeneID 3236)	1	1.51	13.6
35	HOXD10 (GeneID 3236)	2	-1.29	-6.1
36	HOXD10 (GeneID 3236)	3	-0.429	-0.0529
37	TMEM74 (GeneID 157753)	1	0.141	3.96
38	TMEM74 (GeneID 157753)	2	0.127	3.86
39	TMEM74 (GeneID 157753)	3	-0.45	-0.199
40	MAP3K20 (GeneID 51776)	1	-1.58	-8.17
41	MAP3K20 (GeneID 51776)	2	1.1	10.7
42	MAP3K20 (GeneID 51776)	3	0.18	4.23
43	MAGEB10 (GeneID 139422)	1	1.78	15.5
44	MAGEB10 (GeneID 139422)	2	0.303	5.1
45	MAGEB10 (GeneID 139422)	3	0.331	5.29
46	TNS1 (GeneID 7145)	1	1.96	16.8
47	TNS1 (GeneID 7145)	2	3.12	24.9
48	TNS1 (GeneID 7145)	3	0.25	4.73
49	IFI27 (GeneID 3429)	1	0.414	5.88
50	IFI27 (GeneID 3429)	2	2.92	23.5
51	IFI27 (GeneID 3429)	3	-0.811	-2.74
52	PIK3CB (GeneID 5291)	1	0.208	4.43
53	PIK3CB (GeneID 5291)	2	-0.172	1.76
54	PIK3CB (GeneID 5291)	3	-0.565	-1.01
55	GABRG3 (GeneID 2567)	1	-0.801	-2.67
56	GABRG3 (GeneID 2567)	2	-0.0154	2.86
57	GABRG3 (GeneID 2567)	3	1.17	11.2
58	BCDIN3D (GeneID 144233)	1	-0.994	-4.02
59	BCDIN3D (GeneID 144233)	2	-0.109	2.2
60	BCDIN3D (GeneID 144233)	3	3.3	26.2
61	DPEP2 (GeneID 64174)	1	-0.744	-2.27
62	DPEP2 (GeneID 64174)	2	0.206	4.42
63	DPEP2 (GeneID 64174)	3	5.41 (active)	41
64	KLHL33 (GeneID 123103)	1	-0.983	-3.95
65	KLHL33 (GeneID 123103)	2	2.1	17.7
66	KLHL33 (GeneID 123103)	3	-0.524	-0.716
67	KLHL33 (GeneID 123103)	4	0.0262	3.15
68	KLHL33 (GeneID 123103)	5	1.83	15.9
69	KLHL33 (GeneID 123103)	6	-0.515	-0.653
70	HOXA3 (GeneID 3200)	1	-0.758	-2.37
71	HOXA3 (GeneID 3200)	2	-0.421	0.0058
72	HOXA3 (GeneID 3200)	3	0.0226	3.13
73	NPAS2 (GeneID 4862)	1	-0.211	1.49
74	NPAS2 (GeneID 4862)	2	1.69	14.9
75	NPAS2 (GeneID 4862)	3	-0.256	1.16
76	DCP1B (GeneID 196513)	1	-1.2	-5.5
77	DCP1B (GeneID 196513)	2	-0.134	2.02
78	DCP1B (GeneID 196513)	3	-0.167	1.79
79	TLCD4 (GeneID 148534)	1	2.72	22.1
80	TLCD4 (GeneID 148534)	2	0.679	7.75
81	TLCD4 (GeneID 148534)	3	-0.666	-1.72
82	OTUD1 (GeneID 220213)	1	0.888	9.21
83	OTUD1 (GeneID 220213)	2	1.89	16.3
84	OTUD1 (GeneID 220213)	3	0.543	6.79
85	ADGRB2 (GeneID 576)	1	-0.851	-3.02
86	ADGRB2 (GeneID 576)	2	2.39	19.8
87	ADGRB2 (GeneID 576)	3	0.283	4.96
